{
  "sequences": {"note": "Sequences of proteins named here, by UniProt entry; tags and fusion partners are left off. Residues count along the entry.", "UniProt O83732, residues 25-237": "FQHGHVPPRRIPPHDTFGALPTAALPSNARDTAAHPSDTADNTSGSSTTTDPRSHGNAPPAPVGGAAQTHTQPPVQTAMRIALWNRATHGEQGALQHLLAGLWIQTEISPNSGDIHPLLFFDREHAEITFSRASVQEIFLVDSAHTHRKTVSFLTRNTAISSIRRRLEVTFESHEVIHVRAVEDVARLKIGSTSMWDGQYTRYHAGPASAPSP"},
  "source": "paper PMC7521688",
  "target": "TP0751^25-237 (full-length TP0751 without its signal sequence) (Treponema pallidum) (UniProt O83732)",
  "assay": "SEC; analytical gel filtration, Superdex 200 Increase 10/300 GL calibrated with molecular weight standards; 50 mM Tris-HCl pH 7.5, 50 mM NaCl, 1 mM DTT; flow rate 0.5 ml/min; both purified",
  "note": "Results are given in words; binding and its absence hold for the method and conditions named.",
  "data": [
    {"substance": "TP0751^25-237 (full-length TP0751 without its signal sequence) (from UniProt O83732 25-237)", "values": [
      {"measurement": "binding", "value": "no binding"}
    ]}
  ]
}
